The other results are listed elsewhere or left out. Most entries show no effect beyond the scatter of the controls.

The chains behind the UniProt entries cited, without tags or fusion partners. Where a name states a change or a piece, a line headed by the entry shows the natural chain unless it says otherwise.
UniProt Q5T6F2: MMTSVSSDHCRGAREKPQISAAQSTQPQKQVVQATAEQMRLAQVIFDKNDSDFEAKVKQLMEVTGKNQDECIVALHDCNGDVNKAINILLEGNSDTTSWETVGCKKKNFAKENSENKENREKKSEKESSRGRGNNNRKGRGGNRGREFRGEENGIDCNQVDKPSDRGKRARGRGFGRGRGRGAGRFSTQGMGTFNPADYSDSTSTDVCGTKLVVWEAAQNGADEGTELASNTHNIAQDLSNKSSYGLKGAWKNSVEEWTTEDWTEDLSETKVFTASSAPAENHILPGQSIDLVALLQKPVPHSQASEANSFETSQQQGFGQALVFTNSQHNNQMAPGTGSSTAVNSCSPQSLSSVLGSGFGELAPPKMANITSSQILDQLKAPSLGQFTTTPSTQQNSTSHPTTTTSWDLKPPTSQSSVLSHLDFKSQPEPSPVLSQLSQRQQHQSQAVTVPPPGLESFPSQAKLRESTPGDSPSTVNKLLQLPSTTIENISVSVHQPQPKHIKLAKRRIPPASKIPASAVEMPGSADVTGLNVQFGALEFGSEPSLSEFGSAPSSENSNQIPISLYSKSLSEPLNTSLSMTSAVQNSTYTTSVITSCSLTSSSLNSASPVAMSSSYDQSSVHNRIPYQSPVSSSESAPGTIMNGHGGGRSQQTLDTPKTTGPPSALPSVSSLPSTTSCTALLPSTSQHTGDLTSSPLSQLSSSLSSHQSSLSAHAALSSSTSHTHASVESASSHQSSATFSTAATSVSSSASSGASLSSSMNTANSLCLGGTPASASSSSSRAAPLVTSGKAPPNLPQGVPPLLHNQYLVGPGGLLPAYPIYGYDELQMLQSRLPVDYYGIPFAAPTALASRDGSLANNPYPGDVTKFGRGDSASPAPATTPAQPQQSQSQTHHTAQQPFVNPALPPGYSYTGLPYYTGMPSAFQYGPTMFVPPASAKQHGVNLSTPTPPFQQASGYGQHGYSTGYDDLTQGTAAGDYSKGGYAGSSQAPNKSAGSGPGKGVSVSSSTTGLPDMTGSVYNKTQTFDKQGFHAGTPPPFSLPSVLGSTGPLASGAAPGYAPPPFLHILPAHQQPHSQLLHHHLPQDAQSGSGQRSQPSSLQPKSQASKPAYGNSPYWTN
UniProt Q5TCQ9: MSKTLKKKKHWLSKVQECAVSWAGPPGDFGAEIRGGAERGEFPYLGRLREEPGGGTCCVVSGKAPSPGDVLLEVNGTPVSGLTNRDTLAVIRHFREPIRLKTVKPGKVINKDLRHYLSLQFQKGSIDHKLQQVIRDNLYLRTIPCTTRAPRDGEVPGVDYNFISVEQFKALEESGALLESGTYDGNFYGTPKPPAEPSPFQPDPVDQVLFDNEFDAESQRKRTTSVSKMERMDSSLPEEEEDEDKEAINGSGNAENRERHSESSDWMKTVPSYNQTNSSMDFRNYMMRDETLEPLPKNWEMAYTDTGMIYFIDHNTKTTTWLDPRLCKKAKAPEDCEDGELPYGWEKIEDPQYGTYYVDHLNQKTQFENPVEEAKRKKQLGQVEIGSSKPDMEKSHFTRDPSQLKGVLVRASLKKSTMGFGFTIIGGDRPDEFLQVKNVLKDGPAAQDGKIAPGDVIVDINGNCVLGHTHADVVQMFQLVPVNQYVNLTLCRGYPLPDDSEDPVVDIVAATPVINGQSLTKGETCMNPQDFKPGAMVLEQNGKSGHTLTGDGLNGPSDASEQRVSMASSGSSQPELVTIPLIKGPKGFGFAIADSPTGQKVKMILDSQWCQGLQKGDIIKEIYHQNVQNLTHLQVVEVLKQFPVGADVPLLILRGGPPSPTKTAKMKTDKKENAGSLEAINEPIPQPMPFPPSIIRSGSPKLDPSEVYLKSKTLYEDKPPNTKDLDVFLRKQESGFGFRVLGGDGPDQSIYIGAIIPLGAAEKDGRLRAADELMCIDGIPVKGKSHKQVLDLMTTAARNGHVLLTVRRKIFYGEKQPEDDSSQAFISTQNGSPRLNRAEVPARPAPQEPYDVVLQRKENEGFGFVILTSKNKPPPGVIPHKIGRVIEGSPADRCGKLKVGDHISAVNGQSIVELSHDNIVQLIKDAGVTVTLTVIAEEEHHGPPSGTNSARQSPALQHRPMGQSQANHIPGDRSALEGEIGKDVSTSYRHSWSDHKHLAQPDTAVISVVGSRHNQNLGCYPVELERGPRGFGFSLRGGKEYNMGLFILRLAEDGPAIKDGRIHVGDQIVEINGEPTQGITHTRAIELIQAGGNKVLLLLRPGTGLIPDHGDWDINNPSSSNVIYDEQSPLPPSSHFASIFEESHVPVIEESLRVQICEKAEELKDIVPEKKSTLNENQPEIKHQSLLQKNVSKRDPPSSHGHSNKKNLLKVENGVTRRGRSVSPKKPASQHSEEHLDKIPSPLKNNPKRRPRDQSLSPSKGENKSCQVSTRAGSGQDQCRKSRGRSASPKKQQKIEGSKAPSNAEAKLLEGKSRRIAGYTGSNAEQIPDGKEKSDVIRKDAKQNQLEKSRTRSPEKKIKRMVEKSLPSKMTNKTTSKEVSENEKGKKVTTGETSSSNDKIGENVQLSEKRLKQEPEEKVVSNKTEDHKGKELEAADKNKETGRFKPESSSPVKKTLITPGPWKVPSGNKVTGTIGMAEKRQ
UniProt Q5T1V6: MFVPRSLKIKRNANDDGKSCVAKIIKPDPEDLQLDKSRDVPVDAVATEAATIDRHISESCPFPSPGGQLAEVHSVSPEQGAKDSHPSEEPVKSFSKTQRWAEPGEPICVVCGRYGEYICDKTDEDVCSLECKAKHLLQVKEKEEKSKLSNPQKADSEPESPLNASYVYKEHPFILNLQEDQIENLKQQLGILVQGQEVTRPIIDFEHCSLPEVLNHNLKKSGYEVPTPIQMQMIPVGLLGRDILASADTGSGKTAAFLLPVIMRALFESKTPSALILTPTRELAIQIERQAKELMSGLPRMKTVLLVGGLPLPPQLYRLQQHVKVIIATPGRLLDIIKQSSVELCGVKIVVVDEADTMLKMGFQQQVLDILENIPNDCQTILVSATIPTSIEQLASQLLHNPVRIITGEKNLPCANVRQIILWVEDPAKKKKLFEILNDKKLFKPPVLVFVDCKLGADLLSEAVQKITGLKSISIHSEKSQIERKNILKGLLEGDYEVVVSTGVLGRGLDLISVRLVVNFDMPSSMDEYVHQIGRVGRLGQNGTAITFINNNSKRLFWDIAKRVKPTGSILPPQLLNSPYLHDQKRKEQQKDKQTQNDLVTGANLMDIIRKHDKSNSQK
UniProt Q3ZCQ8: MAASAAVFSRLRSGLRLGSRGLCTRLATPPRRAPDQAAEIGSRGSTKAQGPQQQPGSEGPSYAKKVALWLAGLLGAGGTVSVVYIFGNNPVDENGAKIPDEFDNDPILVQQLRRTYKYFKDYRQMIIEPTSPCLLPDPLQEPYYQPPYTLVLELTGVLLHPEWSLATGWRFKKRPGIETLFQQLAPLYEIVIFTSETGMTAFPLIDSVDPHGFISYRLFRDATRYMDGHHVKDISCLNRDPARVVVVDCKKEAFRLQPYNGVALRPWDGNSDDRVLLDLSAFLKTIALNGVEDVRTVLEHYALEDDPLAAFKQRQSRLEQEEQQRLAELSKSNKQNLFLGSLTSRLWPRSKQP
UniProt Q5TCZ1: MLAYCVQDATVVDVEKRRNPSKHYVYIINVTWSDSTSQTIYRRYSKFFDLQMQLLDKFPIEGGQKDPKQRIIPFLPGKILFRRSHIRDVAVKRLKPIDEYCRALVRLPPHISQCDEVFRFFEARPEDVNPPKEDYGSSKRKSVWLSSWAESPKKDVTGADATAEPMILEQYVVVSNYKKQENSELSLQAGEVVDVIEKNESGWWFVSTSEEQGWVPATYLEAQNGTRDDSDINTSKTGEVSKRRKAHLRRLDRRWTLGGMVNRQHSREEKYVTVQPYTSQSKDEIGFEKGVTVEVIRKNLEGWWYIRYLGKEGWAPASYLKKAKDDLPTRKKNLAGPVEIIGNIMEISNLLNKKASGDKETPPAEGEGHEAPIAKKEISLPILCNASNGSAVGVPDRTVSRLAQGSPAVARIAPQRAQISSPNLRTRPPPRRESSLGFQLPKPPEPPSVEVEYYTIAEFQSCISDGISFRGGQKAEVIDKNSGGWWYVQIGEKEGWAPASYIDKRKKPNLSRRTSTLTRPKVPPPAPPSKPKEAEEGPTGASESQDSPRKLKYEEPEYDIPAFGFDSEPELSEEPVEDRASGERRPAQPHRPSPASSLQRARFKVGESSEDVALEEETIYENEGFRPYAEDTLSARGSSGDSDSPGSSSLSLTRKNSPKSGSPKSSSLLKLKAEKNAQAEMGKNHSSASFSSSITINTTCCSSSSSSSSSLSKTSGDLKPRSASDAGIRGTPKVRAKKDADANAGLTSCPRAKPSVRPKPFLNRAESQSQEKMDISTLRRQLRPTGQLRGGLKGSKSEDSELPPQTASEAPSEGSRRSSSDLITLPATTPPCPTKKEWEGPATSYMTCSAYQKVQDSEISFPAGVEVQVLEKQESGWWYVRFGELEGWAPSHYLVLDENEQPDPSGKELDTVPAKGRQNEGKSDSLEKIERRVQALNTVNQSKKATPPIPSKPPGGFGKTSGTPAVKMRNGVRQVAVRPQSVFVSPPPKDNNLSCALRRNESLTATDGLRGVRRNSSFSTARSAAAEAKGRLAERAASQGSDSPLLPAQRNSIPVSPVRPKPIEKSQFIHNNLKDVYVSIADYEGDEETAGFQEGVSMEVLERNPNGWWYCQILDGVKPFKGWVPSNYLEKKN
UniProt Q53EQ6: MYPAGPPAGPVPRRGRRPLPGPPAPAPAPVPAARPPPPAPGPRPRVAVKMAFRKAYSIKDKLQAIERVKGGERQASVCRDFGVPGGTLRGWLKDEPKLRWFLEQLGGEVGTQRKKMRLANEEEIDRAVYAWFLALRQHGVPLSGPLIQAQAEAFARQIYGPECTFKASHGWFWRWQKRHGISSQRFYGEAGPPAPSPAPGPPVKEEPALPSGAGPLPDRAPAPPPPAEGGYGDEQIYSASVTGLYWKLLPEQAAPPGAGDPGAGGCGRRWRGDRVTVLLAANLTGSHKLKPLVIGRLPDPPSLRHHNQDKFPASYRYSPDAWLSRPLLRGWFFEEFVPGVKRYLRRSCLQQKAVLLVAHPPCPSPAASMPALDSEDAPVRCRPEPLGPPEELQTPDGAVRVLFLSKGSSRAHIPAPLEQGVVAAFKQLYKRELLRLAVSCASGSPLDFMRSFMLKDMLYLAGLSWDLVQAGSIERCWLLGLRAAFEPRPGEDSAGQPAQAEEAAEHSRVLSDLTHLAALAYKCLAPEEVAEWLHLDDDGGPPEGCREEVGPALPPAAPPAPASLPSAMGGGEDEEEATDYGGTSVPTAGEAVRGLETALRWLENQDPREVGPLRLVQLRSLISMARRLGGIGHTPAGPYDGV
UniProt Q5EBL2: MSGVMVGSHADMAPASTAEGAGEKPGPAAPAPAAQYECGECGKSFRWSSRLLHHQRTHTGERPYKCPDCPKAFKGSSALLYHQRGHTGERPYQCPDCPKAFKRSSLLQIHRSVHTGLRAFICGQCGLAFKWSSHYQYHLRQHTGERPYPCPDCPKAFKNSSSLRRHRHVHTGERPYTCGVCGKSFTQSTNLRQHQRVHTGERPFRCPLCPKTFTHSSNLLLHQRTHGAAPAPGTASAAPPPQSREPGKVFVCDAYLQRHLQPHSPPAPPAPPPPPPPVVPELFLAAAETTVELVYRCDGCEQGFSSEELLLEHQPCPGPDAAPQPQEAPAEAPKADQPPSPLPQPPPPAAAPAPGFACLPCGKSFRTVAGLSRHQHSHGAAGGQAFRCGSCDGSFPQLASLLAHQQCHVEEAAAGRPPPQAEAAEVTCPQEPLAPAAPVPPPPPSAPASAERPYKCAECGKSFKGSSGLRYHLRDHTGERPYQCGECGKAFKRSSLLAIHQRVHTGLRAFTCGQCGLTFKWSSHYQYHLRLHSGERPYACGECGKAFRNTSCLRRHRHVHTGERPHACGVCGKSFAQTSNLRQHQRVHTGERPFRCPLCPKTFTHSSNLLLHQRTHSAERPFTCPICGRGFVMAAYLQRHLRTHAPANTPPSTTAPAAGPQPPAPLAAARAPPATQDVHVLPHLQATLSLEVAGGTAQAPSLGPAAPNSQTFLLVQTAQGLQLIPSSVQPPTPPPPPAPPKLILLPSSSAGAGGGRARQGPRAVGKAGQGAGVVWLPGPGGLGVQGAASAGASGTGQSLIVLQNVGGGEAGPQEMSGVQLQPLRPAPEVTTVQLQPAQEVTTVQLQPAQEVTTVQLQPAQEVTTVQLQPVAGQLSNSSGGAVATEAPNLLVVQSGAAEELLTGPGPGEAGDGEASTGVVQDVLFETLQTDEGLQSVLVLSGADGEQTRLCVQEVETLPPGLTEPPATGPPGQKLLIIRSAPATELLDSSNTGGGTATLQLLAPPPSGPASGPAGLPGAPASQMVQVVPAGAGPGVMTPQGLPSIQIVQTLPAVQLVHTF

Compound in the test: Cc1nc(Nc2ncc(C(=O)Nc3c(C)cccc3Cl)s2)cc(N2CCN(CCO)CC2)n1 [dasatinib]
Briefly: log2 fold change of tryptic peptide abundance, ligand vs vehicle (limited proteolysis) (log2 ratio); higher = more trypsin-susceptible (destabilized). The settings on record: ligand concentration: 5 uM; sample: K562 cleared lysate.
In the case of “UBAP2 (peptide sequence: SQPSSLQPK, peptide start residue: 1095) (UniProt Q5T6F2)”, the log2 fold change was -0.113. Regarding “MAGI3 (peptide sequence: TQFENPVEEAK, peptide start residue: 365) (UniProt Q5TCQ9)”, the log2 fold change came out at 0.269.

For “RBM26 (peptide sequence: CRDYDEK, peptide start residue: 294) (UniProt Q5T8P6)”, the log2 fold change was 0.592. Consider “DDX59 (peptide sequence: QIILWVEDPAKK, peptide start residue: 419) (UniProt Q5T1V6)”, for which the log2 fold change was -0.657. For “TIMM50 (peptide sequence: LEQEEQQR, peptide start residue: 318) (UniProt Q3ZCQ8)” the value was 0.076. On to “SH3PXD2A (peptide sequence: WTLGGMVNR, peptide start residue: 255) (UniProt Q5TCZ1)”, for which the log2 fold change came to 0.515. Regarding “UniProt Q53EQ6 (peptide sequence: DFGVPGGTLR, peptide start residue: 80)”, the log2 fold change was -0.0195. Regarding “UniProt Q5EBL2 (peptide sequence: HVHTGERPHACGVCGK, peptide start residue: 558)”, the log2 fold change was 0.416.

The values above are taken from the supplement of paper PMC12819154, “High-throughput peptide-centric local stability assay extends protein–ligand identification to membrane proteins, tissues and bacteria” (Nature Structural & Molecular Biology, 2025).
